# Experimental data from the supplement of paper PMC5355238.
# Where a name gives a salt, the structure may show the parent alone. The list shows a part of the results. Most entries show no effect beyond the scatter of the controls.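 Reh is a human leukemia cell line; the read-out is the median γH2AX antibody signal in S-phase cells by flow cytometry, with the score counting standard deviations from the median difference of each paired set of plates. Scores above 2.5 were called candidate hits, while scores below -2 mark compounds that lowered the MK1775-induced damage.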
# System: Reh
# Experiment: Z' of S-phase gammaH2AX difference (drug + MK1775 minus drug alone) (Z-score); higher = stronger synergistic S-phase DNA damage with MK1775
# Conditions: MK1775 concentration 400 nM; first compound 10 µM; 4 h
row,SMILES,Z' of S-phase gammaH2AX difference (Z-score)
1,COc1cc2nc(N3CCN(C(=O)OCc4ccccc4)[C@H](C(=O)NC(C)(C)C)C3)nc(N)c2cc1OC + C=CCn1c(=O)c2cnc(Nc3ccc(N4CCN(C)CC4)cc3)nc2n1-c1cccc(C(C)(C)O)n1 [MK1775],inactive: 0.218
2,CNCCNS(=O)(=O)c1cccc2cnccc12 [H-8 dihydrochloride] + C=CCn1c(=O)c2cnc(Nc3ccc(N4CCN(C)CC4)cc3)nc2n1-c1cccc(C(C)(C)O)n1 [MK1775],inactive: -1.07
3,CCNC(=O)[C@H]1O[C@@H](n2cnc3c(N)nc(NCCc4ccc(CCC(=O)O)cc4)nc32)[C@H](O)[C@@H]1O + C=CCn1c(=O)c2cnc(Nc3ccc(N4CCN(C)CC4)cc3)nc2n1-c1cccc(C(C)(C)O)n1 [MK1775],inactive: 0.311
4,C[C@](N)(Cc1ccc(O)cc1)C(=O)O [L-alpha-Methyl-p-tyrosine] + C=CCn1c(=O)c2cnc(Nc3ccc(N4CCN(C)CC4)cc3)nc2n1-c1cccc(C(C)(C)O)n1 [MK1775],inactive: 0.155
5,CCN(CC)CCCC(C)Nc1ccnc2cc(Cl)ccc12 (configuration not stated) [Chloroquine diphosphate] + C=CCn1c(=O)c2cnc(Nc3ccc(N4CCN(C)CC4)cc3)nc2n1-c1cccc(C(C)(C)O)n1 [MK1775],inactive: -0.00334
6,C[N+](C)(C)CCOP(=O)(O)OP(=O)([O-])OC[C@H]1O[C@@H](n2ccc(N)nc2=O)[C@H](O)[C@@H]1O [Citicoline sodium] + C=CCn1c(=O)c2cnc(Nc3ccc(N4CCN(C)CC4)cc3)nc2n1-c1cccc(C(C)(C)O)n1 [MK1775],inactive: -0.0735
7,CN=c1nc(-c2ccccc2)n(-c2ccccc2)s1 + C=CCn1c(=O)c2cnc(Nc3ccc(N4CCN(C)CC4)cc3)nc2n1-c1cccc(C(C)(C)O)n1 [MK1775],inactive: 0.233
8,CNc1ncnc2c1ncn2[C@@H]1O[C@H](CO)[C@@H](O)[C@H]1O [N6-Methyladenosine] + C=CCn1c(=O)c2cnc(Nc3ccc(N4CCN(C)CC4)cc3)nc2n1-c1cccc(C(C)(C)O)n1 [MK1775],inactive: 0.781
9,N[C@@H](CC(=O)O)C(=O)O [L-Aspartic acid] + C=CCn1c(=O)c2cnc(Nc3ccc(N4CCN(C)CC4)cc3)nc2n1-c1cccc(C(C)(C)O)n1 [MK1775],inactive: 0.471
10,c1ccc2c(c1)CCCC2C1=NCCN1 (configuration not stated) [Tetrahydrozoline hydrochloride] + C=CCn1c(=O)c2cnc(Nc3ccc(N4CCN(C)CC4)cc3)nc2n1-c1cccc(C(C)(C)O)n1 [MK1775],inactive: 0.483
11,"CC1(C)CCC=[N+]1[O-] [5,5-Dimethyl-1-pyrroline-N-oxide] + C=CCn1c(=O)c2cnc(Nc3ccc(N4CCN(C)CC4)cc3)nc2n1-c1cccc(C(C)(C)O)n1 [MK1775]",inactive: 0.503
12,CC1(C)CCC(NC(=O)[C@@H](N)CCC(=O)O)CC1 + C=CCn1c(=O)c2cnc(Nc3ccc(N4CCN(C)CC4)cc3)nc2n1-c1cccc(C(C)(C)O)n1 [MK1775],inactive: -0.471
13,O=C(O)C1CCNCC1 [Isonipecotic acid] + C=CCn1c(=O)c2cnc(Nc3ccc(N4CCN(C)CC4)cc3)nc2n1-c1cccc(C(C)(C)O)n1 [MK1775],inactive: 0.085
14,O=C1NC(=O)C(c2ccccc2[N+](=O)[O-])=C1Nc1ccc(O)c(Cl)c1 + C=CCn1c(=O)c2cnc(Nc3ccc(N4CCN(C)CC4)cc3)nc2n1-c1cccc(C(C)(C)O)n1 [MK1775],inactive: -0.984
15,Oc1ccc(C2CNCCc3c2cc(O)c(O)c3Cl)cc1 (configuration not stated) [Fenoldopam bromide] + C=CCn1c(=O)c2cnc(Nc3ccc(N4CCN(C)CC4)cc3)nc2n1-c1cccc(C(C)(C)O)n1 [MK1775],inactive: -0.508
16,COc1ccc(CCN(C)CCCOc2ccc(S(=O)(=O)c3c(C(C)C)n(C)c4ccccc34)cc2)cc1OC + C=CCn1c(=O)c2cnc(Nc3ccc(N4CCN(C)CC4)cc3)nc2n1-c1cccc(C(C)(C)O)n1 [MK1775],inactive: -0.472
17,Cc1ccc(-c2csc3ncnc(SCCC(=O)O)c23)cc1 + C=CCn1c(=O)c2cnc(Nc3ccc(N4CCN(C)CC4)cc3)nc2n1-c1cccc(C(C)(C)O)n1 [MK1775],inactive: 0.283
18,NCCc1c[nH]cn1 [Histamine dihydrochloride] + C=CCn1c(=O)c2cnc(Nc3ccc(N4CCN(C)CC4)cc3)nc2n1-c1cccc(C(C)(C)O)n1 [MK1775],inactive: -0.93
19,CC(=O)Nc1cccc(-n2c(=O)n(C3CC3)c(=O)c3c(Nc4ccc(I)cc4F)n(C)c(=O)c(C)c32)c1 + C=CCn1c(=O)c2cnc(Nc3ccc(N4CCN(C)CC4)cc3)nc2n1-c1cccc(C(C)(C)O)n1 [MK1775],inactive: -0.376

# 3 entries from above, tab-delimited:
row	SMILES	Z' of S-phase gammaH2AX difference (Z-score)
16	COc1ccc(CCN(C)CCCOc2ccc(S(=O)(=O)c3c(C(C)C)n(C)c4ccccc34)cc2)cc1OC + C=CCn1c(=O)c2cnc(Nc3ccc(N4CCN(C)CC4)cc3)nc2n1-c1cccc(C(C)(C)O)n1 [MK1775]	inactive: -0.472
17	Cc1ccc(-c2csc3ncnc(SCCC(=O)O)c23)cc1 + C=CCn1c(=O)c2cnc(Nc3ccc(N4CCN(C)CC4)cc3)nc2n1-c1cccc(C(C)(C)O)n1 [MK1775]	inactive: 0.283
18	NCCc1c[nH]cn1 [Histamine dihydrochloride] + C=CCn1c(=O)c2cnc(Nc3ccc(N4CCN(C)CC4)cc3)nc2n1-c1cccc(C(C)(C)O)n1 [MK1775]	inactive: -0.93

# (further entries)

row,SMILES,Z' of S-phase gammaH2AX difference (Z-score)
1,CC[N+](C)(C)c1cccc(O)c1 [Edrophonium chloride] + C=CCn1c(=O)c2cnc(Nc3ccc(N4CCN(C)CC4)cc3)nc2n1-c1cccc(C(C)(C)O)n1 [MK1775],inactive: 0.751
2,OCCN1CCN(CC/C=C2/c3ccccc3Sc3ccc(C(F)(F)F)cc32)CC1 [cis-(Z)-Flupenthixol dihydrochloride] + C=CCn1c(=O)c2cnc(Nc3ccc(N4CCN(C)CC4)cc3)nc2n1-c1cccc(C(C)(C)O)n1 [MK1775],inactive: -0.143
3,O=C(/C=C/C#Cc1cccc(NS(=O)(=O)c2ccccc2)c1)NO [Oxamflatin] + C=CCn1c(=O)c2cnc(Nc3ccc(N4CCN(C)CC4)cc3)nc2n1-c1cccc(C(C)(C)O)n1 [MK1775],inactive: -0.178
4,Cc1cn[nH]c1 [4-Methylpyrazole hydrochloride] + C=CCn1c(=O)c2cnc(Nc3ccc(N4CCN(C)CC4)cc3)nc2n1-c1cccc(C(C)(C)O)n1 [MK1775],inactive: 1.01
5,COC(=O)Nc1nc2cc(C(=O)c3cccs3)ccc2[nH]1 [Nocodazole] + C=CCn1c(=O)c2cnc(Nc3ccc(N4CCN(C)CC4)cc3)nc2n1-c1cccc(C(C)(C)O)n1 [MK1775],inactive: 0.45
6,O=C(O)CCCCCCCC(=O)O [Azelaic acid] + C=CCn1c(=O)c2cnc(Nc3ccc(N4CCN(C)CC4)cc3)nc2n1-c1cccc(C(C)(C)O)n1 [MK1775],inactive: -0.0535
7,CC(=Cc1ccc(C(=O)O)cc1)c1ccc2c(c1)C(C)(C)CCC2(C)C + C=CCn1c(=O)c2cnc(Nc3ccc(N4CCN(C)CC4)cc3)nc2n1-c1cccc(C(C)(C)O)n1 [MK1775],inactive: -0.498
8,C=CC(N)CCC(=O)O (configuration not stated) [(?)-gamma-Vinyl GABA] + C=CCn1c(=O)c2cnc(Nc3ccc(N4CCN(C)CC4)cc3)nc2n1-c1cccc(C(C)(C)O)n1 [MK1775],inactive: -1.37
9,CC(C)(C)c1cnc(CSc2cnc(NC(=O)C3CCNCC3)s2)o1 + C=CCn1c(=O)c2cnc(Nc3ccc(N4CCN(C)CC4)cc3)nc2n1-c1cccc(C(C)(C)O)n1 [MK1775],inactive: -1.28
10,CC(=O)S[C@@H]1CC2=CC(=O)CC[C@]2(C)[C@H]2CC[C@@]3(C)[C@@H](CC[C@@]34CCC(=O)O4)[C@H]12 [Spironolactone] + C=CCn1c(=O)c2cnc(Nc3ccc(N4CCN(C)CC4)cc3)nc2n1-c1cccc(C(C)(C)O)n1 [MK1775],inactive: -0.0466
11,C#Cc1cccc(Nc2ncnc3cc(OC)c(OCCCCCCC(=O)NO)cc23)c1 + C=CCn1c(=O)c2cnc(Nc3ccc(N4CCN(C)CC4)cc3)nc2n1-c1cccc(C(C)(C)O)n1 [MK1775],inactive: 0.119
12,NC1(C(=O)O)CCCCC1 [1-Amino-1-cyclohexanecarboxylic acid hydrochloride] + C=CCn1c(=O)c2cnc(Nc3ccc(N4CCN(C)CC4)cc3)nc2n1-c1cccc(C(C)(C)O)n1 [MK1775],inactive: 0.0434
13,NNCCc1ccccc1 [Phenelzine sulfate] + C=CCn1c(=O)c2cnc(Nc3ccc(N4CCN(C)CC4)cc3)nc2n1-c1cccc(C(C)(C)O)n1 [MK1775],inactive: 0.252
14,CC(C)(C=O)Cc1cc(C(C)(C)C)c(O)c(C(C)(C)C)c1 + C=CCn1c(=O)c2cnc(Nc3ccc(N4CCN(C)CC4)cc3)nc2n1-c1cccc(C(C)(C)O)n1 [MK1775],inactive: 0.0668
15,CN1CCN(CC/C=C2/c3ccccc3Sc3ccc(S(=O)(=O)N(C)C)cc32)CC1 [Thiothixene hydrochloride] + C=CCn1c(=O)c2cnc(Nc3ccc(N4CCN(C)CC4)cc3)nc2n1-c1cccc(C(C)(C)O)n1 [MK1775],inactive: 0.382
16,NCC(O)C1CCCCCCC1 (configuration not stated) [2-Cyclooctyl-2-hydroxyethylamine hydrochloride] + C=CCn1c(=O)c2cnc(Nc3ccc(N4CCN(C)CC4)cc3)nc2n1-c1cccc(C(C)(C)O)n1 [MK1775],inactive: 1.17
17,CN1CCC(=C2c3ccccc3C=Cc3ccccc32)CC1 [Cyproheptadine hydrochloride] + C=CCn1c(=O)c2cnc(Nc3ccc(N4CCN(C)CC4)cc3)nc2n1-c1cccc(C(C)(C)O)n1 [MK1775],inactive: 0.277
18,CCCNC[C@H](O)COc1ccccc1C(=O)CCc1ccccc1 [(S)-(-)-propafenone hydrochloride] + C=CCn1c(=O)c2cnc(Nc3ccc(N4CCN(C)CC4)cc3)nc2n1-c1cccc(C(C)(C)O)n1 [MK1775],inactive: -0.107
